Laboratory results as given in paper PMC4834435.
Changes are numbered by the printed parent chain. These are yes or no findings as the source states them, for the method shown. For some of these results: Binding seen in cells or lysates may run through a third protein. Some entries that bind do so weakly or less than the wild type. Sequences can lack the tags named with a protein.

Assays:
[1] = molecular target: T1, His-tagged Orc1 (Orc1-His), wild type (S. cerevisiae) (UniProt P54784); test: pull-down; cleared lysates of 293T cells co-overexpressing Orc1-His, Orc2, Orc3, Orc4, Orc5 with or without Orc6; pulldown by the His tag; 9% SDS-PAGE, Coomassie staining
T1 sequence: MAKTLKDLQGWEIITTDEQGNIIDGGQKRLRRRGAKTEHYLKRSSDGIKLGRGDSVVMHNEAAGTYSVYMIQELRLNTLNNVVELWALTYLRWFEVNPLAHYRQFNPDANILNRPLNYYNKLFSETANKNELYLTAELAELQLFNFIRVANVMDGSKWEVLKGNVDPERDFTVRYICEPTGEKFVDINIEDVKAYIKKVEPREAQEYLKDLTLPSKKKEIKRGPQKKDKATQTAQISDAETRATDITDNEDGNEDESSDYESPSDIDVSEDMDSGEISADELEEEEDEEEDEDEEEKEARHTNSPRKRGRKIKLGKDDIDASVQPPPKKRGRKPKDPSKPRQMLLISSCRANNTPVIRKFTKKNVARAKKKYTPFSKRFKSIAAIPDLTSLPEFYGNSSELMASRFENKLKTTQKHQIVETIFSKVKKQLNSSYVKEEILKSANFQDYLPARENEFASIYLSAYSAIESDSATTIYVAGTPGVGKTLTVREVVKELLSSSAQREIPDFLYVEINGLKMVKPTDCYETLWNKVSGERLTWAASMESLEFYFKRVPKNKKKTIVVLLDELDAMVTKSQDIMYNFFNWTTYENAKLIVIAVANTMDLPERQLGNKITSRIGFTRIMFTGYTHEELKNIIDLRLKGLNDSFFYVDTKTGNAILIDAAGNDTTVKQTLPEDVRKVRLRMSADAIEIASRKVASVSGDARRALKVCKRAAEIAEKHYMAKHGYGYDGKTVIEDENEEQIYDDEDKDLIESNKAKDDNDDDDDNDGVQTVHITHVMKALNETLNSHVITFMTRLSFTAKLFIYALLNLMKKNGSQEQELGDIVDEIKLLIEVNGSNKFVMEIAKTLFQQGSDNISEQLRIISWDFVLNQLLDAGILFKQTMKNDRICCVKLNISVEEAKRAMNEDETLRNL

[2] = molecular target: T1, His-tagged Orc1 (Orc1-His), wild type (S. cerevisiae); test: SEC; Superdex 200 in buffer H/0.2 (200 mM KCl) of the peak fractions after His affinity step and SP Sepharose; fractions on 9% SDS-PAGE, Coomassie; subunits co-expressed in 293T cells
[3] = molecular target: T2, His-tagged Orc1 K362A (S. cerevisiae) (UniProt P54784); test: as above
T2 sequence: T1 sequence with K362A

[4] = molecular target: T3, His-tagged Orc1 R367A (S. cerevisiae) (UniProt P54784); test: as above
T3 sequence: T1 sequence with R367A

[5] = molecular target: T1, His-tagged Orc1 (Orc1-His), wild type (S. cerevisiae); test: HisTrap affinity column chromatography; HisTrap column with linear imidazole gradient elution of lysate of 293T cells co-overexpressing His-tagged Orc1 (wild type or mutant) and Orc2/3/4/5/6; fractions on 9% SDS-PAGE, Coomassie
[6] = molecular target: T2, His-tagged Orc1 K362A (S. cerevisiae); test: as above
[7] = molecular target: T3, His-tagged Orc1 R367A (S. cerevisiae); test: as above
[8] = molecular target: T1, His-tagged Orc1 (Orc1-His), wild type (S. cerevisiae); test: pull-down; MagneHis beads, 1 h, in lysis buffer (50 mM Hepes-KOH pH 7.6, 0.3% NP-40, 400 mM KCl, 17.5 mM imidazole) with nuclease-treated lysate of 293T cells co-overexpressing Orc1-His and Orc2/3/4/5; five washes, elution with 500 mM imidazole; SDS-PAGE, Coomassie
[9] = molecular target: T4, His-tagged Orc1 (Orc1-His), wild type (S. cerevisiae), P54784; test: pull-down; cleared lysates of 293T cells co-overexpressing Orc1-His, Orc2, Orc3, Orc4, Orc5 with or without Orc6; pulldown by the His tag; 9% SDS-PAGE, Coomassie staining; conditions: remark: other sources report otherwise
T4 chain: T1 sequence

[10] = molecular target: T4, His-tagged Orc1 (Orc1-His), wild type …; test: SEC; Superdex 200 in buffer H/0.2 (200 mM KCl) of the peak fractions after His affinity step and SP Sepharose; fractions on 9% SDS-PAGE, Coomassie; subunits co-expressed in 293T cells; conditions: remark: other sources report otherwise
[11] = molecular target: T4, His-tagged Orc1 (Orc1-His), wild type …; test: HisTrap affinity column chromatography; HisTrap column with linear imidazole gradient elution of lysate of 293T cells co-overexpressing His-tagged Orc1 (wild type or mutant) and Orc2/3/4/5/6; fractions on 9% SDS-PAGE, Coomassie; conditions: remark: other sources report otherwise

Measured: binding

B1: Orc4 (protein, UniProt P54791 1-529)
chain: MTISEARLSPQVNLLPIKRHSNEEVEETAAILKKRTIDNEKCKDSDPGFGSLQRRLLQQLYGTLPTDEKIIFTYLQDCQQEIDRIIKQSIIQKESHSVILVGPRQSYKTYLLDYELSLLQQSYKEQFITIRLNGFIHSEQTAINGIATQLEQQLQKIHGSEEKIDDTSLETISSGSLTEVFEKILLLLDSTTKTRNEDSGEVDRESITKITVVFIFDEIDTFAGPVRQTLLYNLFDMVEHSRVPVCIFGCTTKLNILEYLEKRVKSRFSQRVIYMPQIQNLDDMVDAVRNLLTVRSEISPWVSQWNETLEKELSDPRSNLNRHIRMNFETFRSLPTLKNSIIPLVATSKNFGSLCTAIKSCSFLDIYNKNQLSNNLTGRLQSLSDLELAILISAARVALRAKDGSFNFNLAYAEYEKMIKAINSRIPTVAPTTNVGTGQSTFSIDNTIKLWLKKDVKNVWENLVQLDFFTEKSAVGLRDNATAAFYASNYQFQGTMIPFDLRSYQMQIILQELRRIIPKSNMYYSWTQL
binds: [1] | [2] | [3] | [4] | [5] | [6] | [7] | [8]

B2: Orc5 (protein, UniProt P50874 1-479)
chain: MNVTTPEVAFREYQTNCLASYISADPDITPSNLILQGYSGTGKTYTLKKYFNANPNLHAVWLEPVELVSWKPLLQAIARTVQYKLKTLYPNIPTTDYDPLQVEEPFLLVKTLHNIFVQYESLQEKTCLFLILDGFDSLQDLDAALFNKYIKLNELLPKDSKINIKFIYTMLETSFLQRYSTHCIPTVMFPRYNVDEVSTILVMSRCGELMEDSCLRKRIIEEQITDCTDDQFQNVAANFIHLIVQAFHSYTGNDIFALNDLIDFKWPKYVSRITKENIFEPLALYKSAIKLFLSTDDNLSENGQGESAITTNRDDLENSQTYDLSIISKYLLIASYICSYLEPRYDASIFSRKTRIIQGRAAYGRRKKKEVNPRYLQPSLFAIERLLAIFQAIFPIQGKAESGSLSALREESLMKANIEVFQNLSELHTLKLIATTMNKNIDYLSPKVRWKVNVPWEIIKEISESVHFNISDYFSDIHE
binds: [1] | [2] | [3] | [4] | [5] | [6] | [7] | [8]

B3: Orc6, P38826 1-435 (protein)
chain: MSMQQVQHCVAEVLRLDPQEKPDWSSGYLKKLTNATSILYNTSLNKVMLKQDEEVARCHICAYIASQKMNEKHMPDLCYYIDSIPLEPKKAKHLMNLFRQSLSNSSPMKQFAWTPSPKKNKRSPVKNGGRFTSSDPKELRNQLFGTPTKVRKSQNNDSFVIPELPPMQTNESPSITRRKLAFEEDEDEDEEEPGNDGLSLKSHSNKSITGTRNVDSDEYENHESDPTSEEEPLGVQESRSGRTKQNKAVGKPQSELKTAKALRKRGRIPNSLLVKKYCKMTTEEIIRLCNDFELPREVAYKIVDEYNINASRLVCPWQLVCGLVLNCTFIVFNERRRKDPRIDHFIVSKMCSLMLTSKVDDVIECVKLVKELIIGEKWFRDLQIRYDDFDGIRYDEIIFRKLGSMLQTTNILVTDDQYNIWKKRIEMDLALTEPL
binds: [9] | [10] | [11]
